The campaign covered roughly 390,000 compounds. About 910 (0.23%) were called active. The inconclusive results got no clear call from the source; some entries with a clear call stand among them for comparison. Calls follow the shape of the dose curve; as a rule, active = well fitted inhibition curve with a large enough effect; inconclusive = small, poorly fitted or top-dose-only effect; inactive = no such curve, though single readings can be large or run the other way. Where the call is inconclusive, the potency comes from a doubtful curve fit.
Target: Ubiquitin carboxyl-terminal hydrolase 1 (Homo sapiens) (UniProt O94782)
Test: Inhibitors of USP1/UAF1: Primary Screen; also: nearly all actives have a fitted effect of over 60% in size
Settings: recombinant USP1/UAF1, Ub-Rhodamine cleavage fluorescence; series mostly up to 57.1 µM
Procedure, shortened: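 In this screen, compounds sit with the deubiquitinase complex (1nM) for 15 min at room temperature before Ub-Rho is added at 150nM final. Fluorescence rise is then followed for 6 reads every 60 seconds.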
Potency is read from the fitted curve at half-maximal effect.

The chains behind the UniProt entries cited, without tags or fusion partners. Where a name states a change or a piece, a line headed by the entry shows the natural chain unless it says otherwise.
UniProt O94782: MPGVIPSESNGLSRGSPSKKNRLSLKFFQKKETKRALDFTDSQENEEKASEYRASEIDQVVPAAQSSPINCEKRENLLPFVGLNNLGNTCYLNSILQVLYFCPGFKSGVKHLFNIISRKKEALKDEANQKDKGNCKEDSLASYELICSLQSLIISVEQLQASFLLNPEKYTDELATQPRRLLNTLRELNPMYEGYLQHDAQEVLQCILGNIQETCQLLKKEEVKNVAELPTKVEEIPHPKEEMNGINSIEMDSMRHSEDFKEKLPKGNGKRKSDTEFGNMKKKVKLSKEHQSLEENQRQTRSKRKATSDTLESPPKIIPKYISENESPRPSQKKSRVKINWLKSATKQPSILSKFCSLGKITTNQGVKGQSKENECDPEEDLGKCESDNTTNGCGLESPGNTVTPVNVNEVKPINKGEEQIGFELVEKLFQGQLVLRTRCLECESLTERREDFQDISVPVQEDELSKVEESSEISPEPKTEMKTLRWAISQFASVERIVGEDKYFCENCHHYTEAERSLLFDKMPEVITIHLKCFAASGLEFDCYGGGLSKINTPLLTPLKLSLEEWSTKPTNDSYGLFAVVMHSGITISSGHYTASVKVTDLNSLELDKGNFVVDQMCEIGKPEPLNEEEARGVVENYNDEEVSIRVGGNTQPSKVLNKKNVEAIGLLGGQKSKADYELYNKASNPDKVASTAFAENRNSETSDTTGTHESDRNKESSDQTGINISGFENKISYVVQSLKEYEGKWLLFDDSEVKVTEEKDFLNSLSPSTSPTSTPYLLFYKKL

SMILES	Potency
COc1ccccc1OCCn1cc(C(=O)c2cccs2)c2ccccc21	inconclusive: 100 µM [inhibitor, partial curve, poor fit]
O=C(c1cc2c(=O)oc3ccccc3c2s1)N1CCN(c2cccc(Cl)c2)CC1	inactive
NC1=NC[C@H](Cc2ccc(O)cc2)N1CCCCC1CCCCC1	inactive
Cc1ccc(-c2csc(N(Cc3ccco3)C(=O)c3cccs3)n2)cc1	inconclusive: 44.7 µM [inhibitor, partial curve]
Cc1cccc(C)c1NC(=O)CN1C(=O)S/C(=C\c2cccn2-c2cccc(C(=O)O)c2)C1=O	inactive
Cc1ccc(S(=O)(=O)Nc2ncnc3sc(C)c(C)c23)cc1	inactive
Cc1ccc(C2Nc3ccccc3-n3c(-c4ccccc4)c4c(=O)n(C)c(=O)n(C)c4c32)o1 (stereo unspecified)	inconclusive: 1.78 µM [inhibitor, full curve, poor fit]
CCOc1ccccc1Nc1nc(N)nc(CSc2nccc(C)n2)n1	inactive
Cc1cc(C)cc(NC(=O)c2cc(S(=O)(=O)N3CCCCCC3)cn2C)c1	inconclusive: 126 µM [inhibitor, partial curve]
Cc1cccc(C(=O)N/N=C/c2ccc(OCC(=O)N3CCCCC3)cc2)c1	inconclusive: 0.501 µM [inhibitor, full curve, poor fit]
CC(=O)Nc1ccc(Cl)cc1-c1ccccc1	inconclusive: 2.82 µM [inhibitor, full curve, poor fit]
COc1ccc(-c2nn(C)c3sc(C(=O)Nc4cccc(F)c4)cc23)cc1OC	inactive
Cc1ccc(Cn2c(SCC(=O)Nc3cc(C)on3)nc3ccccc3c2=O)cc1	inactive
CCc1nnc(NC(=O)c2cc(=O)c3cc(C)c(C)cc3o2)s1	inactive
COP(=O)(OC)c1ccc(NCc2cc(O)ccc2O)cc1	inconclusive: 35.5 µM [inhibitor, partial curve, poor fit]
COC(=O)c1ccc(NC(=O)c2c(NCc3ccc(C)o3)sc3c2CCCC3)cc1	inconclusive: 7.94 µM [inhibitor, partial curve, poor fit]
CCN=C1S/C(=C/c2ccc(-c3ccc(Cl)cc3C(=O)O)o2)C(=O)N1CC	inconclusive: 31.6 µM [inhibitor, partial curve]
CCc1ccc(-c2nc3ccc(Br)cc3c(C(=O)O)c2C)s1	inconclusive: 0.708 µM [inhibitor, partial curve, poor fit]
C(=N\Nc1nc2ccccc2[nH]1)/c1ccccn1	inactive
Cc1ccc(N=Nc2c(C)[nH]n(-c3ccccc3)c2=O)c(C)c1	inconclusive: 0.316 µM [inhibitor, partial curve, poor fit]
Cc1ccc2c(CC(=O)Nc3ccc(F)c(S(=O)(=O)N4CCOCC4)c3)coc2c1	inconclusive: 5.01 µM [inhibitor, full curve, poor fit]
CC(C)(C)NC(=O)COC(=O)c1ccc(Cl)c(S(N)(=O)=O)c1	inconclusive: 0.251 µM [inhibitor, full curve, poor fit]

Structural class: the entries above with an aryl thioether with sulfur outside any ring
SMILES	Potency
CCOc1ccccc1Nc1nc(N)nc(CSc2nccc(C)n2)n1	inactive
Cc1ccc(Cn2c(SCC(=O)Nc3cc(C)on3)nc3ccccc3c2=O)cc1	inactive

The results go on:

SMILES	Potency
S=C(Nc1cc(Cl)ccc1Cl)Nn1cnnc1	inactive
CN1CCN(C(=O)C(=O)Nc2c3c(nn2-c2ccc(F)cc2)CSC3)CC1	inactive
CC1CCC(NC(=O)c2ccc(NC3=NC4CS(=O)(=O)CC4S3)cc2)CC1 (stereo unspecified)	inconclusive: 50.1 µM [inhibitor, partial curve, poor fit]
C=CCc1c(C)nc2c(C)cccc2c1SC(=N)N	inconclusive: 31.6 µM [inhibitor, partial curve, poor fit]
Nc1ccc(OC(=O)Nc2ccc(O)cc2)cc1	inconclusive: 39.8 µM [inhibitor, partial curve, poor fit]
COc1ccc(NC(=O)CN(C)C(=O)c2sc3cc(Cl)ccc3c2Cl)cc1	inconclusive: 0.282 µM [inhibitor, full curve]
Cc1ccc(-n2c(O)c(/C=N/c3ncn[nH]3)c3ccccc3c2=O)cc1	inactive
COc1ccc(CCNC(=O)C(=O)NN=C2CCCCCCC2)cc1OC	inactive
S=c1nc[nH]c2c1ncn2-c1ccc(Cl)cc1	inconclusive: 0.316 µM [inhibitor, full curve]
Cc1ccc(S(=O)(=O)NCCc2nnc3ccc(SCc4ccccc4C)nn23)cc1	inconclusive: 79.4 µM [inhibitor, partial curve, poor fit]
Cn1c(NC(=O)c2ccccc2F)cc(=O)n(C)c1=O	inconclusive: 0.316 µM [inhibitor, full curve, poor fit]
CCS(=O)(=O)N1N=C(c2ccc(C)cc2)CC1c1cc2ccc(OC)cc2nc1Cl (stereo unspecified)	inconclusive: 50.1 µM [inhibitor, partial curve, poor fit]
CCc1nnc2c(NCc3ccccc3OC)nc3ccccc3n12	inconclusive: 100 µM [inhibitor, partial curve]
O=C(CSc1cn(CC(=O)N2CCCCCC2)c2ccccc12)Nc1ccccc1F	inconclusive: 35.5 µM [inhibitor, single point]
O=S(=O)(N1CCOCC1)N1CCN(c2ccc(F)cc2)CC1	inconclusive: 0.794 µM [inhibitor, full curve, poor fit]
Cc1nn(CCCC(=O)NCc2ccccc2)c(=O)c2nn(-c3ccccc3)c(C)c12	inconclusive: 7.94 µM [inhibitor, partial curve]
O=C(Nc1ccc(N2CCN(C(=O)c3ccccc3F)CC2)cc1)c1ncn[nH]1	inconclusive: 5.01 µM [inhibitor, partial curve, poor fit]
O=S(=O)(c1ccc2ccccc2c1)n1nc(-c2ccco2)nc1NCc1cccc(Cl)c1	inconclusive: 2 µM [inhibitor, partial curve]
Cc1cc(O)c(/C=N/c2ccccn2)c(=O)o1	inconclusive: 35.5 µM [inhibitor, partial curve]
COc1ccc(-c2nc(-c3ccccc3)c(-c3ccccc3)[nH]2)cc1Br	inconclusive: 3.16 µM [inhibitor, partial curve]
Cc1ccc(NC(=O)C2CCCN2C(=O)OCc2ccccc2)cc1C (stereo unspecified)	inconclusive: 79.4 µM [inhibitor, partial curve, poor fit]
CCOc1ccc(NC(=O)CN(C)C(=O)c2ccccc2CCc2ccccc2)cc1OCC	inconclusive: 70.8 µM [inhibitor, partial curve, poor fit]

SMILES	Potency
CCCCNc1nc(Oc2ccc(=O)n(C)n2)nc(N(C)C)n1	inactive
COc1ccccc1C(=O)Oc1ccc2c(c1)O/C(=C\c1ccncc1)C2=O	inconclusive: 28.2 µM [inhibitor, single point]
O=C(NC1CCCCC1)c1ccc2c(c1)N(Cc1ccccc1)C(=O)c1ccccc1S2	inconclusive: 0.891 µM [inhibitor, full curve, poor fit]
O=c1[nH]cnc2sc3c(c12)CN(Cc1ccccc1)CC3	inconclusive: 39.8 µM [inhibitor, partial curve, poor fit]
CC(C)Cn1cnc2c1c(=O)n(C)c(=O)n2C	inconclusive: 31.6 µM [inhibitor, single point]
Cc1ccc2c(=O)cc(C(=O)NCCc3ccc(S(N)(=O)=O)cc3)oc2c1	inactive
COc1ccccc1/C=N/NC(=O)C(=O)Nc1ccccc1OC(F)(F)C(F)F	inactive
CC(CNC(=O)C1CCN(Cc2cc3ccccc3n2Cc2ccccc2)CC1)c1ccccc1 (stereo unspecified)	inactive
O=Cc1ccc2oc3nc4n(c(=O)c3c(=O)c2c1)CCCS4	inconclusive: 89.1 µM [inhibitor, partial curve, poor fit]
COC(=O)[C@@]12CCCCN1[C@H](c1ccc(-c3cccc(Cl)c3)c(OC)c1)[C@@H]1C(=O)N(C)C(=O)[C@@H]12	inconclusive: 7.94 µM [inhibitor, partial curve, poor fit]
O=C(COC(=O)c1ccc([N+](=O)[O-])s1)Nc1cccc(S(=O)(=O)NC2=NCCCCC2)c1	inconclusive: 35.5 µM [inhibitor, partial curve, poor fit]
Cc1ccc(S(=O)(=O)c2c(N)n(/N=C/c3ccco3)c3nc4ccccc4nc23)cc1	inactive
Cn1c(-c2ccc(F)cc2)cnc1NCc1cccc(F)c1	inactive
COc1ccc(C)cc1NC(=O)C1CCN(C(=O)c2ccc(C(C)(C)C)cc2)CC1	inactive
Cc1[nH]c2ccccc2c1/C=N/Nc1nncn1N	inconclusive: 35.5 µM [inhibitor, partial curve]
CCCOc1cccc(-c2cc(C(=O)NNC(=S)NCC)c3ccccc3n2)c1	inconclusive: 44.7 µM [inhibitor, partial curve, poor fit]
O=C(NC1CCN(C(=O)NCc2ccccc2)CC1)c1ccccc1	inactive
CCOC(=O)c1sc(N)nc1C(F)(F)F	inconclusive: 8.91 µM [inhibitor, partial curve, poor fit]
COc1cccc(NC2=CC(=O)CC(C)(C)C2)c1	inconclusive: 0.631 µM [inhibitor, full curve, poor fit]
CCOc1ccc(CNC(=O)c2c(C)nn(-c3ccc(F)cc3)c2-n2cccc2)cc1	inconclusive: 70.8 µM [inhibitor, partial curve, poor fit]
Cc1ccc(-c2csc(N3CCC[C@@H]3C(=O)NCCn3c(C(F)(F)F)nc4ccccc43)n2)cc1	inconclusive: 0.794 µM [inhibitor, full curve, poor fit]
Cc1noc(Cn2c(=O)c3cc4c(cc3n(CC(=O)Nc3cccc(Cl)c3)c2=O)OCO4)n1	inconclusive: 22.4 µM [inhibitor, partial curve, poor fit]

Look-ups from the list.
Potency with CCCCNc1nc(Oc2ccc(=O)n(C)n2)nc(N(C)C)n1 reads inactive
Potency with CC(C)Cn1cnc2c1c(=O)n(C)c(=O)n2C reads inconclusive: 31.6 µM [inhibitor, single point]
Potency with COc1cccc(NC2=CC(=O)CC(C)(C)C2)c1 reads inconclusive: 0.631 µM [inhibitor, full curve, poor fit]
